This note sets out measurements from paper PMC11009412, “Pathogenic mutations of human phosphorylation sites affect protein–protein interactions” (Nature Communications, 2024).

Positions count from the first letter of the chain named. These are yes or no findings as the source states them, for the method shown. Binding seen in cells or lysates may run through a third protein. A yes stands for co-enrichment or nearness to the bait. Other partners may have been found. For part of these data: No binding means not detected with the bait. For part of these data: Where a sequence is shown, tags or fusion partners need not be part of it.

For experiment [1], the target named is T1, BirA*-FLAG-GATAD1 S102D (human) (UniProt Q8WUU5).
T1 sequence: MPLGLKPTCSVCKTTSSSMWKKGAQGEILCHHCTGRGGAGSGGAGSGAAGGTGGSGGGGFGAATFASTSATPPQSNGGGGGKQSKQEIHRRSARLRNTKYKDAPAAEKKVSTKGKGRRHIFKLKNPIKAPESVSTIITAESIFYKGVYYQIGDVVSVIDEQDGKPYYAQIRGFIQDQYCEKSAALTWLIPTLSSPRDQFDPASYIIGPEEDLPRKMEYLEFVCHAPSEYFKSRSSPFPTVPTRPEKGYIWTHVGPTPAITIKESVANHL
Briefly: affinity purification with mass spectrometry; FLAG immunoprecipitation (ANTI-FLAG M2 magnetic beads, 2 h) of BirA*-FLAG-GATAD1 variants from tetracycline-induced Flp-In-293 T-REx lysate (50 mM Tris HCl pH 7.4, 150 mM NaCl, 1 mM EDTA, 1% Triton X-100); control non-induced cells; label-free, triplicates.

Experiment [2] concerns the target T2, BirA*-FLAG-GATAD1 S102A (human) (UniProt Q8WUU5).
T2 sequence: T1 sequence with D102A
The description is as above.

In experiment [3] the target is T3, BirA*-FLAG-GATAD1 wild-type (WT) (human) (UniProt Q8WUU5).
T3 sequence: T1 sequence with D102S
The experiment is described as above.

In experiment [4] the target is T4, BirA*-FLAG-GATAD1 S102P (human) (UniProt Q8WUU5).
T4 sequence: T1 sequence with D102P
The description is as above.

The target in experiment [5] is T5, GATAD1 pS102 peptide, position -4 to alanine (alanine scanning) (human) (UniProt Q8WUU5).
T5 sequence (peptide, phosphoserine at 102): LRNAKYKSAPAAEKK
Briefly: affinity purification with mass spectrometry; PRISMA alanine scanning: 15 GATAD1-derived peptides on a cellulose membrane in triplicates, pull-down from HEK-293T lysate, label-free quantification, one-way ANOVA; only the target purified.

The target of experiment [6] is T6, GATAD1 pS102 peptide, position -3 to alanine (alanine scanning) (human) (UniProt Q8WUU5).
T6 sequence (peptide, phosphoserine at 102): LRNTAYKSAPAAEKK
The description is as above.

The target in experiment [7] is T7, GATAD1 pS102 peptide, position -5 to alanine (alanine scanning) (human) (UniProt Q8WUU5).
T7 sequence (peptide, phosphoserine at 102): LRATKYKSAPAAEKK
The experiment is described as above.

Experiment [8] concerns the target T8, GATAD1 pS102 peptide, proline in position +2 to alanine (alanine scanning) (human) (UniProt Q8WUU5).
T8 sequence (peptide, phosphoserine at 102): LRNTKYKSAAAAEKK
The description is as above.

Experiment [9] deals with T9, GATAD1 pS102 peptide, position -2 to alanine (alanine scanning) (human) (UniProt Q8WUU5).
T9 sequence (peptide, phosphoserine at 102): LRNTKAKSAPAAEKK
Described as above.

In experiment [10] the target is T10, GATAD1 pS102 peptide, position +4 alanine to glycine (alanine scanning) (human) (UniProt Q8WUU5).
T10 sequence (peptide, phosphoserine at 102): LRNTKYKSAPAGEKK
The description is as above.

The target in experiment [11] is T11, GATAD1 pS102 peptide, position +5 to alanine (alanine scanning) (human) (UniProt Q8WUU5).
T11 sequence (peptide, phosphoserine at 102): LRNTKYKSAPAAAKK
The description is as above.

Experiment [12] concerns the target T12, GATAD1 aspartic acid mutant (S102D) peptide on cellulose membrane (alanine scanning) (human) (UniProt Q8WUU5).
T12 sequence (peptide): LRNTKYKDAPAAEKK
The experiment is described as above.

In experiment [13] the target is T13, GATAD1 pS102 peptide, position +3 alanine to glycine (alanine scanning) (human) (UniProt Q8WUU5).
T13 sequence (peptide, phosphoserine at 102): LRNTKYKSAPGAEKK
The description is as above.

The target of experiment [14] is T14, GATAD1 S102P peptide on cellulose membrane (PRISMA) (human) (UniProt Q8WUU5).
T14 sequence (peptide): LRNTKYKPAPAAEKK
The experiment is described as above.

In experiment [15] the target is T15, GATAD1 pS102 peptide, position -1 to alanine (alanine scanning) (human) (UniProt Q8WUU5).
T15 sequence (peptide, phosphoserine at 102): LRNTKYASAPAAEKK
The experiment is described as above.

B1: 14-3-3 eta (protein, UniProt Q04917 1-246)
chain: MGDREQLLQRARLAEQAERYDDMASAMKAVTELNEPLSNEDRNLLSVAYKNVVGARRSSWRVISSIEQKTMADGNEKKLEKVKAYREKIEKELETVCNDVLSLLDKFLIKNCNDFQYESKVFYLKMKGDYYRYLAEVASGEKKNSVVEASEAAYKEAFEISKEQMQPTHPIRLGLALNFSVFYYEIQNAPEQACLLAKQAFDDAIAELDTLNEDSYKDSTLIMQLLRDNLTLWTSDQQDEEAGEGN
B1: the binding entry in [1] is “no binding”; in [2] it was “no binding”; in experiment [3], “no binding”; in [4], “no binding”; in experiment [5] it was “binds”; in experiment [6], “binds”. The binding entry in [7] was “binds”; in [8] it was “binds”; in experiment [9], “binds”; in [10] it was “binds”; in experiment [11], “binds”; in experiment [12] it was “no binding”. Further, the results for the binding entry in experiment [13], in [14] and in experiment [15] were “binds”, “no binding” and “binds”, respectively.

B2: 14-3-3 theta (protein, UniProt P27348 1-245)
chain: MEKTELIQKAKLAEQAERYDDMATCMKAVTEQGAELSNEERNLLSVAYKNVVGGRRSAWRVISSIEQKTDTSDKKLQLIKDYREKVESELRSICTTVLELLDKYLIANATNPESKVFYLKMKGDYFRYLAEVACGDDRKQTIDNSQGAYQEAFDISKKEMQPTHPIRLGLALNFSVFYYEILNNPELACTLAKTAFDEAIAELDTLNEDSYKDSTLIMQLLRDNLTLWTSDSAGEECDAAEGAEN
On to B2, for which the binding result in [1] is listed as “no binding”; in [2] it was “no binding”; in experiment [3], “no binding”; in experiment [4] it was “no binding”; in experiment [5], “binds”; in experiment [6] it was “binds”. Besides, the binding entry in experiment [7] is given as “binds”; in experiment [8], “binds”; in experiment [9] it was “binds”; in experiment [10], “binds”; in experiment [11], “binds”; in experiment [12], “no binding”. Further, the binding entry in experiment [13] is “binds”; in experiment [14], “no binding”; in [15], “binds”.
